# Measurements: publication PMC11150451
# These are yes or no findings as the source states them, for the method shown. Binding seen in cells or lysates may run through a third protein.
# B1: ParB (protein, UniProt B8GW30 1-304)
# chain: MESVVVGEPGMSEGRRGLGRGLSALLGEVDAAPAQAPGEQLGGSREAPIEILQRNPDQPRRTFREEDLEDLSNSIREKGVLQPILVRPSPDTAGEYQIVAGERRWRAAQRAGLKTVPIMVRELDDLAVLEIGIIENVQRADLNVLEEALSYKVLMEKFERTQENIAQTIGKSRSHVANTMRLLALPDEVQSYLVSGELTAGHARAIAAAADPVALAKQIIEGGLSVRETEALARKAPNLSAGKSKGGRPPRVKDTDTQALESDLSSVLGLDVSIDHRGSTGTLTITYATLEQLDDLCNRLTRGI
# Biological target: FLAG-tagged GafZ (C. crescentus)
# Assay: co-IP; FLAG-tagged GafZ as bait on anti-FLAG magnetic beads (μMACS kit); stationary-phase C. crescentus lysate in 50 mM Tris-HCl pH 8, 150 mM NaCl, 1% Triton X-100, with Benzonase; immunoblots with anti-VSVG, anti-ParB, anti-FLAG
binder,measurement,value
B1,binding,no binding
